# The supplement of paper PMC3334620
# The full ranking holds about 33,000 sequences; the median of “E-score (-0.5 to 0.5)” is about -0.0014, and the highest 2% start at about 0.25. The list shows a part of the results.
# Biological target: T1, Cad1 (UniProt P24813)
# T1 sequence: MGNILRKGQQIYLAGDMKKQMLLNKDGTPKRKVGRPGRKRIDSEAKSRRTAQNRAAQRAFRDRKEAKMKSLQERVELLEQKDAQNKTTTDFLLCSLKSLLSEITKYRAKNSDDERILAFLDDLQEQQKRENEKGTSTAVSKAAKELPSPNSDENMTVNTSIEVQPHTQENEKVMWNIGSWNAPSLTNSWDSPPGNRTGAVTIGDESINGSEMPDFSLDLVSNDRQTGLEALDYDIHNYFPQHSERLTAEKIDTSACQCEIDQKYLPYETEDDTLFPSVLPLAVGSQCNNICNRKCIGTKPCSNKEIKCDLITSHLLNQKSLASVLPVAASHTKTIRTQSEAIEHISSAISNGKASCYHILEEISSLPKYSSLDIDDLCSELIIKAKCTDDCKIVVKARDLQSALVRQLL
# Assay: PBM E-score (8-mer binding enrichment) (E-score (-0.5 to 0.5)); higher = stronger / more preferred TF binding
# Settings: protein concentration: 100 nM; construct: GST-full length
# Procedure, shortened: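 GST-tagged yeast TFs (full-length or DNA-binding domain) were made by PURExpress in vitro transcription/translation and applied at about 100-200 nM to universal all-10-mer Agilent arrays. The arrays were made double-stranded by primer extension, on fresh or once-stripped slides. Bound protein was detected with fluorescent anti-GST, and scans were normalised with masliner. Each ungapped eight-base word, pooled with its reverse complement, received an E-score (modified Wilcoxon-Mann-Whitney statistic) from the Universal PBM Analysis Suite.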
row,Sequence,PBM E-score
1,ACTAGACT,-0.219
2,AGTGTCAA,0.0488
3,CAGATATC,0.0973
4,ACAAAGTC,-0.0486
5,ACGGTGCC,-0.0427
6,CGGGACCG,0.0304
7,GAATCACC,0.069
8,GTATCGCA,-0.00484
9,CATGCTAA,0.119
10,GACGCTCC,-0.112
11,ACCCTTTC,-0.129
12,ACAGACGC,-0.0967
13,GCCTCGTA,0.102
14,GAACGTGA,0.0851
15,CACCTGCA,0.0275
16,GTAGCCGA,-0.0434
17,CACGTCTC,-0.0455
18,ATAAACCG,0.00794
19,CTAATGCA,0.153
20,CGTCGGAG,0.00297
21,GGGCGCCC,0.0661
22,ACACACGG,-0.0786
23,GCCTGAAA,0.0559
24,GCGCACCC,-0.0131
25,ATGCTGAG,-0.198

row,Sequence,PBM E-score
1,CAACGCAG,-0.0715
2,GAATAACC,-0.0686
3,AACCGACC,0.0155
4,AACTTTTA,0.173
5,CCTCGTAC,-0.0257
6,ATGAGTAC,0.0206
7,CCTAGGTC,-0.0745
8,GGCCTACC,-0.0038
9,TAACTGGA,-0.0338
10,GCCGTGCA,0.00627
11,CTGACAAG,0.101
12,GGAACCCC,-0.235
13,CTGTCAAG,-0.0861
14,GCTTTACC,0.148
15,CCTCAAAA,-0.149
16,AGGCCAGG,-0.068
17,AAGACGCC,0.0403
18,CTAATATA,0.239
19,ATCAAAAG,0.017
20,ATCCCAAA,-0.0834
21,TCAATCGA,0.131
22,AGACGCCT,-0.1
23,AAAGTAGT,-0.0673
24,CATTAGGG,-0.11
25,GATTACCA,0.179

# Seven records drawn at random from the list so far, as already listed:
row,Sequence,PBM E-score
3,AACCGACC,0.0155
19,CTAATGCA,0.153
20,ATCCCAAA,-0.0834
5,CCTCGTAC,-0.0257
20,CGTCGGAG,0.00297
25,ATGCTGAG,-0.198
22,AGACGCCT,-0.1

# Additional entries follow:

row,Sequence,PBM E-score
1,ACGTAGTG,-0.0112
2,CAGAGTGG,-0.121
3,AGAAACAG,-0.0491
4,GCGTCAGA,0.0112
5,GCCGATTA,0.0275
6,AACTACTA,0.239
7,ACATCACA,0.0995
8,CCTACTAC,-0.0286
9,CCAGGCCC,0.0233
10,ATTGCCCC,-0.0974
11,GACCCATA,0.0887
12,GATAATGA,0.167
13,AACCGTTA,-0.0839
14,GTGCAATA,0.0215
15,AAATGCGC,0.224
16,GGTCATCA,0.0893
17,ACTCACGC,-0.0934
18,CATCGTAA,-0.0133
19,ACTCTATA,0.0276
20,AGGTGTCC,0.0345
21,AAGAAAGT,0.0333
22,TCCTTTCA,0.0428
23,AGTAAAGC,-0.00649
24,AGGGACCC,-0.141
25,GAGCTACA,-0.226

row,Sequence,PBM E-score
1,CATATATA,0.164
2,CCTGAGAC,-0.206
3,ACGATCGG,0.0625
4,CGCCGTTC,0.086
5,AGACAATG,0.02
6,AACCGCCG,-0.12
7,AACAGGAC,0.0596
8,AGTAAGCC,0.156
9,AAGGTCTG,-0.0627
10,ATTTCGCA,0.195
11,CCAATTCG,0.00661
12,CCCAAAGG,-0.226
13,CTCACATC,-0.0273
14,AGATAAGC,0.122
15,CGTAAGTA,0.0957
16,AACTCTAC,-0.181
17,ACAAGTAG,-0.25
18,CAACCAAA,0.0894
19,AGGGAGAA,-0.102
20,CCTCTTAA,0.123
21,CATTGCTA,0.209
22,CCACTACA,-0.113
23,ATCTGGGC,-0.165
24,ATTCTGCA,0.149
25,GCTCCGAC,-0.0885

row,Sequence,PBM E-score
1,ACCTAAAG,0.11
2,GTCAAGAC,-0.149
3,CCAAACCG,0.0268
4,AGACGTTC,0.0289
5,ATGCGCCA,-0.0186
6,ACGGTTCC,0.161
7,TGGCACCA,-0.0587
8,CTTATCGC,0.0636
9,GACCGCAC,-0.118
10,AGCGCGAT,0.22
11,GCAGTCCA,-0.0495
12,ATTGTGGG,0.0283
13,CGGACGAC,-0.0294
14,CAAGATAA,0.0886
15,ATATGTAA,0.209
16,ATAATGGG,-0.0187
17,AGACCAGC,-0.203
18,ACTCCGTA,-0.228
19,CAAGTTCG,-0.118
20,ACGGAACT,0.14
21,AGAGATCA,-0.0178
22,CTGTAATC,0.0947
23,ATCGAAAT,0.0274
24,TATCAGCA,0.0575
25,CAAGATGA,-0.189

row,Sequence,PBM E-score
1,TAACGGGA,-0.0399
2,ACCCAAGG,-0.0568
3,ATCGACTA,-0.0833
4,CTAAATCC,0.106
5,GCTTGTAA,0.0954
6,ATCCATGG,-0.0689
7,AGTTCTCC,-0.21
8,AACGCTAA,-0.0579
9,CTTTGGTC,-0.0468
10,CGGGATTC,0.0799
11,CATTGAGG,-0.202
12,AGCACTAA,0.094
13,AGGTAGGC,-0.156
14,CACGTCGA,-0.0493
15,CCTTGGTA,0.0354
16,GGCTACAC,-0.0182
17,AATTTTCG,0.09
18,AGGACAAG,-0.13
19,CACAGCAC,-0.0189
20,ACAAGTAC,-0.0799
21,AAAGACGA,-0.00996
22,GGATCGCC,-0.00869
23,GACAGGTA,-0.0364
24,AGGGAGAG,-0.194
25,GGATCAAA,0.111

row,Sequence,PBM E-score
1,AAGACCAT,3e-05
2,CCGGGACC,-0.0474
3,ATGTTTCA,0.0198
4,GAAGGGAC,-0.216
5,AAGCTGAT,0.216
6,CCTATAGA,0.0029
7,CCCCGAAG,-0.127
8,CGTATATA,0.0397
9,CTCACAAG,0.0553
10,GAGATCAA,0.0808
11,AACGACCC,-0.0693
12,GCACTATA,0.0551
13,ATGTCTGC,-0.0115
14,TCGCGTCA,0.0403
15,CCCGGAGC,0.0222
16,GTCCATTA,0.0858
17,ATTCTTCC,-0.0601
18,GCACACCA,-0.0778
19,CATCTCCG,0.112
20,CCCACTCC,-0.208
21,AAGCCACA,0.0406
22,CCGCCATA,0.0886
